Measured values from the supplement of paper PMC10849652.
This is one part of the list.

What was measured:
Assay in all cases: log2 fold change, soluble protein after heating vs DMSO (PISA); higher = thermal stabilisation; K562 lysate, 10 uM; active = over 0.2 and 3.5 SD of the protein, either way, in both replicates (recomputed)
nilotinib = compound: Cc1cn(-c2cc(NC(=O)c3ccc(C)c(Nc4nccc(-c5cccnc5)n4)c3)cc(C(F)(F)F)c2)cn1 [nilotinib]
Summary of the method: (§1)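 A 30 min treatment with 10 μM compound was applied to crude K562 extract at 1 mg/mL protein in PBS pH 7.4 with 1 mM MgCl2. Heating for 3 min spanned 48°C-58°C, after which aliquots were pooled, adjusted to 0.5% NP-40 at 4°C and spun at 21,000xg for 90 min. TMTpro 16plex LC-MS/MS of the supernatant, with channel sums equalised, gave values recorded as log-two fold change in thermal stability against solvent controls, from duplicates.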

[1] = compound: Cc1nc(Nc2n[nH]c3c2CN(C(=O)N[C@H](CN(C)C)c2ccccc2)C3(C)C)c2sccc2n1
Summary of the method: as §1

dasatinib = compound: Cc1nc(Nc2ncc(C(=O)Nc3c(C)cccc3Cl)s2)cc(N2CCN(CCO)CC2)n1 [dasatinib]
Summary of the method: as §1

[2] = compound: Cc1ncc(-c2ccnc(Nc3ccc(S(C)(=O)=O)cc3)n2)n1C(C)C
Summary of the method: as §1

[3] = compound: Cn1cc(-c2ccc3c(c2)CCN3C(=O)Cc2cccc(C(F)(F)F)c2)c2c(N)ncnc21
Summary of the method: as §1

quisinostat = compound: Cn1cc(CNCC2CCN(c3ncc(C(=O)NO)cn3)CC2)c2ccccc21 [quisinostat]
Summary of the method: as §1

tipifarnib = compound: Cn1cncc1[C@@](N)(c1ccc(Cl)cc1)c1ccc2c(c1)c(-c1cccc(Cl)c1)cc(=O)n2C [tipifarnib]
Summary of the method: as §1

[4] = compound: NC(=O)Nc1cc(-c2cccc(F)c2)sc1C(=O)N[C@H]1CCCNC1
Summary of the method: as §1

[5] = compound: NC1(c2ccc(-c3nc4ccn5c(=O)[nH]nc5c4cc3-c3ccccc3)cc2)CCC1
Summary of the method: as §1

[6] = compound: NCC(=O)Nc1ccc(-n2nc(C(F)(F)F)cc2-c2ccc3c(ccc4ccccc43)c2)cc1
Summary of the method: as §1

vorinostat = compound: O=C(CCCCCCC(=O)Nc1ccccc1)NO [vorinostat]
Summary of the method: as §1

silmitasertib = compound: O=C(O)c1ccc2c(c1)nc(Nc1cccc(Cl)c1)c1ccncc12 [silmitasertib]
Summary of the method: as §1

[7] = compound: O=C1NC(=O)C(c2cnc3ccccn23)=C1c1cn2c3c(cc(F)cc13)CN(C(=O)N1CCCCC1)CC2
Summary of the method: as §1

entospletinib = compound: c1cn2cc(-c3ccc4cn[nH]c4c3)nc(Nc3ccc(N4CCOCC4)cc3)c2n1 [entospletinib]
Summary of the method: as §1

[8] = compound: NC(=O)c1cnc(N[C@@H]2CCCC[C@@H]2N)nc1Nc1cccc(-n2nccn2)c1
Summary of the method: as §1

Measured: log2 fold change

USP22 (UniProt Q9UPT9)
inactive: nilotinib -0.032 | [1] 0.002 | dasatinib 0.022 | [2] 0.037 | [3] 0.028 | quisinostat -0.065 | tipifarnib -0.028 | [4] 0.004 | [5] -0.012 | [6] -0.069 | silmitasertib -0.045 | [7] 0.001 | entospletinib 0.059
active: vorinostat -0.323

VAMP8 (UniProt Q9BV40)
inactive: nilotinib 0.006 | [1] -0.004 | dasatinib 0.051 | [2] 0.017 | [3] 0.015 | quisinostat 0.068 | tipifarnib 0.017 | [4] -0.075 | [8] -0.021 | [5] 0.021 | [6] -0.02 | vorinostat 0.09 | silmitasertib -0.034 | [7] -0.032 | entospletinib -0.077

USP28 isoform 2 (UniProt Q96RU2)
inactive: nilotinib -0.033 | [1] -0.009 | dasatinib -0.032 | [2] 0.026 | [3] -0.018 | quisinostat -0.082 | tipifarnib -0.005 | [4] -0.002 | [8] 0.012 | [5] 0.027 | [6] 0.021 | vorinostat -0.141 | silmitasertib 0.051 | [7] 0.02 | entospletinib -0.007

USP36 (UniProt Q9P275)
inactive: nilotinib 0.258 | [1] -0.002 | [2] -0.092 | quisinostat -0.019 | tipifarnib -0.262 | [4] 0.067 | [8] 0.06 | [6] -0.4 | [7] 0.076 | entospletinib 0.098

UTP11 (UniProt Q9Y3A2)
inactive: nilotinib -0.13 | [1] -0.009 | dasatinib 0.027 | [2] 0.071 | [3] 0.038 | quisinostat -0.066 | tipifarnib 0.081 | [4] 0.029 | [8] 0.099 | [6] 0.124 | [7] -0.096 | entospletinib 0.135

UROS (UniProt P10746)
inactive: nilotinib -0.022 | [1] 0.033 | dasatinib 0.005 | [2] 0.01 | [3] 0.036 | quisinostat 0.061 | tipifarnib 0.051 | [4] 0.001 | [8] 0.003 | [5] -0.016 | [6] -0.011 | vorinostat -0.118 | silmitasertib 0.045 | [7] 0.031 | entospletinib -0.038

URI1 isoform 4 (UniProt O94763)
inactive: nilotinib 0.046 | [1] -0.071 | dasatinib -0.026 | [2] -0.015 | [3] 0.027 | quisinostat -0.028 | tipifarnib -0.031 | [4] -0.056 | [8] -0.032 | [5] 0.115 | vorinostat -0.02 | silmitasertib -0.033 | [7] 0.049 | entospletinib 0.068

VGLL4 isoform 4 (UniProt Q14135)
inactive: nilotinib 0.006 | [1] -0.003 | dasatinib 0.118 | [2] -0.036 | [3] -0.024 | quisinostat -0.014 | tipifarnib 0.021 | [4] -0.051 | [5] 0.034 | vorinostat -0.03 | silmitasertib -0.021 | [7] -0.112

URB1 (UniProt O60287)
inactive: nilotinib -0.046 | [1] -0.049 | dasatinib -0.062 | [2] 0.185 | [3] 0.081 | quisinostat -0.049 | tipifarnib 0.077 | [4] 0.016 | [8] -0.122 | [5] -0.047 | [6] 0.04 | vorinostat -0.059 | silmitasertib 0.023 | [7] 0.006 | entospletinib 0.004

UROD (UniProt H0Y5R6)
inactive: [8] 0.126 | [6] -0.059 | entospletinib 0.021

USP37 (UniProt Q86T82)
inactive: quisinostat 0.049 | [4] 0.159 | [6] 0.266 | [7] -0.194 | entospletinib -0.076

UXS1 isoform 2 (UniProt Q8NBZ7)
inactive: dasatinib -0.063 | [3] 0.098 | quisinostat 0.045 | [4] -0.009 | [8] -0.041 | [5] -0.039 | [6] -0.01 | vorinostat 0.059 | silmitasertib -0.006 | [7] 0.004 | entospletinib -0.077

UHRF2 (UniProt Q96PU4)
inactive: quisinostat 0.039 | [4] -0.033 | [6] -0.142 | [7] 0.427

ULK1 (UniProt O75385)
inactive: dasatinib -0.046 | [3] 0.059 | quisinostat 0.183 | [4] 0.22 | [8] 0.008 | [5] 0 | [6] 0.059 | vorinostat -0.141 | silmitasertib -0.024 | [7] -0.004 | entospletinib -0.031

UNG (UniProt P13051)
inactive: dasatinib -0.021 | [3] 0.069 | [5] 0.076 | vorinostat -0.072 | silmitasertib 0.179 | entospletinib -0.15

UTP23 (UniProt Q9BRU9)
inactive: dasatinib 0.084 | [3] 0.07 | quisinostat -0.078 | [4] 0.041 | [8] 0.02 | [5] 0.112 | vorinostat -0.072 | silmitasertib -0.066 | [7] -0.002

UPF3A (UniProt Q9H1J1)
inactive: quisinostat -0.053 | [4] -0.024 | [8] 0.002 | [5] 0.071 | vorinostat 0.251 | silmitasertib 0.013 | [7] 0.078 | entospletinib -0.243

USP54 (UniProt Q70EL1)
inactive: quisinostat 0.003 | [4] 0.08 | [7] -0.035

UQCC3 (UniProt Q6UW78)
inactive: dasatinib 0.145 | [3] -0.011 | [8] -0.104 | [5] -0.182 | [6] -0.141 | vorinostat 0.055 | silmitasertib 0.048 | entospletinib -0.18

USP20 (UniProt Q9Y2K6)
inactive: dasatinib 0 | [3] -0.016 | quisinostat -0.103 | [4] 0.225 | [5] 0.073 | vorinostat -0.11 | silmitasertib 0.027 | [7] 0.006 | entospletinib 0.039

USP27X (UniProt A6NNY8)
inactive: quisinostat -0.269 | [4] 0.124 | [7] -0.143

VIL1 (UniProt P09327)
inactive: dasatinib 0.126 | [3] -0.085 | quisinostat 0.046 | [4] 0.044 | [8] -0.013 | [5] 0.012 | [6] 0.053 | vorinostat -0.114 | silmitasertib 0.136 | [7] 0.054 | entospletinib 0.004

VAV2 (UniProt P52735)
inactive: dasatinib -0.171 | [3] -0.133 | [8] 0.11 | [6] -0.027

USP15 isoform 3 (UniProt Q9Y4E8)
inactive: dasatinib -0.014 | [3] -0.006 | quisinostat -0.007 | [4] -0.053 | [8] 0.007 | [7] 0.072

VCPKMT (UniProt Q9H867)
inactive: quisinostat -0.063 | [4] 0.07 | [5] -0.177 | vorinostat 0.292 | silmitasertib 0.243 | [7] 0.033

ULK3 isoform 4 (UniProt Q6PHR2)
inactive: dasatinib 0.035 | [3] -0.181 | quisinostat -0.11 | [4] 0.296 | [8] 0.133 | [5] -0.157 | [6] -0.102 | vorinostat -0.05 | silmitasertib 0.242 | [7] 0.046 | entospletinib 0.273

UQCRB (UniProt E5RHG9)
inactive: dasatinib 0.028 | [3] 0.102

USP19 isoform 4 (UniProt O94966)
inactive: dasatinib -0.104 | [3] 0.04 | [8] 0.135 | [5] -0.007 | [6] 0.166 | vorinostat -0.143 | silmitasertib -0.09 | entospletinib -0.051

USP7 (UniProt H3BND8)
inactive: nilotinib -0.121 | [1] 0.508 | [2] 0.232 | tipifarnib -0.082 | [8] 0.207

USP46 (UniProt P62068)
inactive: quisinostat -0.173 | [4] 0.1 | [8] 0.061 | [7] 0.072

VASN (UniProt Q6EMK4)
inactive: dasatinib 0.081 | [3] 0.027 | [5] -0.059 | vorinostat 0.233 | silmitasertib -0.263 | entospletinib -0.027

VGF (UniProt O15240)
inactive: dasatinib 0.04 | [3] -0.188 | [5] -0.242 | [6] 0.122 | vorinostat 0.13 | silmitasertib -0.133 | entospletinib -0.205

9 successive records already listed:
USP37 (UniProt Q86T82)
inactive: quisinostat 0.049 | [4] 0.159 | [6] 0.266 | [7] -0.194 | entospletinib -0.076

UXS1 isoform 2 (UniProt Q8NBZ7)
inactive: dasatinib -0.063 | [3] 0.098 | quisinostat 0.045 | [4] -0.009 | [8] -0.041 | [5] -0.039 | [6] -0.01 | vorinostat 0.059 | silmitasertib -0.006 | [7] 0.004 | entospletinib -0.077

UHRF2 (UniProt Q96PU4)
inactive: quisinostat 0.039 | [4] -0.033 | [6] -0.142 | [7] 0.427

ULK1 (UniProt O75385)
inactive: dasatinib -0.046 | [3] 0.059 | quisinostat 0.183 | [4] 0.22 | [8] 0.008 | [5] 0 | [6] 0.059 | vorinostat -0.141 | silmitasertib -0.024 | [7] -0.004 | entospletinib -0.031

UNG (UniProt P13051)
inactive: dasatinib -0.021 | [3] 0.069 | [5] 0.076 | vorinostat -0.072 | silmitasertib 0.179 | entospletinib -0.15

UTP23 (UniProt Q9BRU9)
inactive: dasatinib 0.084 | [3] 0.07 | quisinostat -0.078 | [4] 0.041 | [8] 0.02 | [5] 0.112 | vorinostat -0.072 | silmitasertib -0.066 | [7] -0.002

UPF3A (UniProt Q9H1J1)
inactive: quisinostat -0.053 | [4] -0.024 | [8] 0.002 | [5] 0.071 | vorinostat 0.251 | silmitasertib 0.013 | [7] 0.078 | entospletinib -0.243

USP54 (UniProt Q70EL1)
inactive: quisinostat 0.003 | [4] 0.08 | [7] -0.035

UQCC3 (UniProt Q6UW78)
inactive: dasatinib 0.145 | [3] -0.011 | [8] -0.104 | [5] -0.182 | [6] -0.141 | vorinostat 0.055 | silmitasertib 0.048 | entospletinib -0.18

Remaining list, next part

VEGFA isoform 14 (UniProt P15692)
inactive: quisinostat 0.105 | [4] 0.014 | [7] 0.005

UNKL (UniProt E9PDK2)
inactive: dasatinib -0.216 | [3] 0.006 | quisinostat 0.015 | [4] 0.045 | [6] -0.336 | [7] 0.003 | entospletinib 0.108

USF3 (UniProt Q68DE3)
inactive: [8] 0.102 | [5] -0.082 | vorinostat 0.008 | silmitasertib 0.023 | entospletinib -0.004

ULBP2 (UniProt Q9BZM5)
inactive: dasatinib 0.058 | [3] -0.115 | quisinostat 0.006 | [4] -0.004 | [8] -0.018 | [5] -0.055 | [6] 0.128 | vorinostat 0.113 | silmitasertib -0.022 | [7] -0.031 | entospletinib -0.091

UTRN isoform 2 (UniProt P46939)
inactive: [5] 0.21 | vorinostat 0.173 | silmitasertib -0.144 | entospletinib -0.424

USP30 (UniProt Q70CQ3)
inactive: dasatinib 0.145 | [3] -0.226 | quisinostat 0.036 | [4] 0.215 | [5] -0.005 | vorinostat -0.119 | silmitasertib -0.022 | [7] 0.063

USP5 (UniProt F5H571)
inactive: nilotinib -0.076 | [1] 0.071 | [2] 0.495 | tipifarnib 0.133 | [8] 0.123

UNC13A (UniProt Q9UPW8)
inactive: nilotinib 0.114 | [1] 0.046 | [2] 0.165 | tipifarnib 0.064 | [5] -0.048 | vorinostat -0.485 | silmitasertib 0.078

VANGL2 (UniProt Q9ULK5)
inactive: dasatinib -0.049 | [3] 0.094 | quisinostat -0.489 | [4] 0.128 | [8] 0.061 | [5] -0.235 | vorinostat -0.189 | silmitasertib -0.079 | [7] 0.209

VEZT (UniProt F8W8C2)
inactive: quisinostat 0.091 | [4] 0.034 | [8] -0.12 | [5] 0.065 | [6] 0.063 | vorinostat 0.114 | silmitasertib 0.099 | [7] 0.15 | entospletinib -0.015
